Measurements: PubChem BioAssay AID2685 (National Center for Advancing Translational Sciences (NCATS), 2010)
Screen size: about 320,000 compounds; about 2,100 (0.66%) were called active. The shares of active, inactive and inconclusive entries below differ from those in the screen. Calls follow the shape of the dose curve; as a rule, active = well fitted inhibition curve with a large enough effect in the signal ratio, with a control signal flat (not every such curve was filed as active); inconclusive = small, poorly fitted or top-dose-only effect, or effect the other way, or a change in a side signal; inactive = flat fitted curve, though single readings scatter; the % refers to the signal ratio. Potencies of inconclusive entries are doubtful fits and often do not repeat.

assay: qHTS Assay for Lipid Storage Modulators in Drosophila S3 Cells; conditions: BODIPY lipid droplet fluorescence, 18-24 h, cells fed with added oleic acid; lipid storage change, negative = inhibition: at 46.1 µM (top of the series) unless noted
Method in brief: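 Drosophila S3 cells got compounds at several concentrations plus oleic acid (400 uM solution). Laser-scanning cytometry with 488 nm excitation read lipid droplets at 500-530 nm and cells at 575-640 nm. Percent activity was relative to 20 uM Triacsin C.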
% is scaled to controls: 0 for no effect and ±100 for the full control effect; potency is read from the fitted curve at half-maximal effect.

Potency, inconclusive:
O=C1C=C(c2cccc3c2sc2ccccc23)C[C@@H](c2ccc(F)cc2)C1 1.16 µM [activator, single point], CC(=O)c1ccc(NC(=S)Nc2cccc3ccccc23)cc1 29.1 µM [activator, single point], CCOC(=O)c1[nH]c2ccc(Br)cc2c1NC(=O)CCN1CCN(C(=O)OCC)CC1 0.461 µM [falling, single point], O=C(CCCn1cnc([N+](=O)[O-])n1)Nc1cccc(Cl)c1Cl 25.9 µM [activator, single point], CC(=O)c1cccc(NC(=S)Nc2cccc3ccccc23)c1 29.1 µM [rising, partial curve, poor fit], CN(C)c1nc(N)nc(CSc2nnnn2-c2cccc3ccccc23)n1 2.59 µM [activator, full curve], COc1ccc(C(=O)NCc2nnc(SCC(=O)Nc3nc4ccccc4s3)o2)cc1 2.31 µM [falling, partial curve, poor fit], CC1CN(C(=O)c2cccc(S(=O)(=O)N3CCN(c4ccc(F)cc4)CC3)c2)CC(C)O1 (stereo not given) 8.2 µM [falling, partial curve, poor fit], COc1c2occc2c(OC)c2c(=O)cc(C)oc12 0.366 µM [activator, full curve], CCC(C)c1c(O)nc(SCC(=O)N2CCCCCC2)[nH]c1=O (stereo not given) 1.84 µM [activator, partial curve], Cc1cccc(OCc2nnc(SCCC(=O)O)n2-c2ccccc2)c1 1.46 µM [activator, partial curve], CCN(CC(=O)c1c(N)n(C)c(=O)n(C)c1=O)c1cccc2ccccc12 29.1 µM [activator, single point], O=C(NCC(=O)N1CCN(c2ccccc2O)CC1)c1ccc2c(c1)OCO2 11.6 µM [activator, single point], Cc1ccc(N2CC(C(=O)Nc3ccc4c(c3)OCCO4)CC2=O)cc1 (stereo not given) 29.1 µM [activator, single point], COC(=O)c1sccc1NC(=O)Nc1cccc(OC)c1 6.51 µM [activator, partial curve, poor fit], Cc1cccc(NC(=O)c2ccc(C)c(S(=O)(=O)N3CCCCC3)c2)n1 2.91 µM [activator, partial curve, poor fit], CCCOc1ccc(NC(=O)C2CC(=O)N/C(=N/N=C(\C)CCc3ccc4c(c3)OCO4)S2)cc1 (stereo not given) 0.326 µM [activator, partial curve, poor fit], O=C(NCc1ccco1)/C(=C/c1ccccc1F)NC(=O)c1ccccc1 29.1 µM [falling, single point], Cc1ccc(-n2nnnc2CNC(=O)C2CC(=O)N(c3ccccc3)C2)cc1C (stereo not given) 6.51 µM [falling, single point], CN1CCCN(C(=O)c2ccc(Cl)cc2)CC1 2.06 µM [activator, partial curve], O=C(COC(=O)C1CCN(S(=O)(=O)c2cccs2)CC1)Nc1ccc(F)cc1F 25.9 µM [activator, single point]

Potency, active:
CC(C)c1nc2ccc(C(=O)O)cc2[nH]1 23.1 µM

Lipid storage change, negative = inhibition, inconclusive:
O=C1N=C(N2CCOCC2)S/C1=C/c1cc2c(cc1[N+](=O)[O-])OCO2 4.61%, CCc1ccc(NC(=O)CSc2nnc(-c3ccccn3)n2C)cc1 -8.5%, CCOC(=O)C1(CCCc2ccccc2)CCN(C(=O)COC)CC1 4.73%, Cc1cc(-c2csc3nc[nH]c(=S)c23)cc(C)c1C -17.1%, O=C1CC(Nc2ccc(N3CCOCC3)cc2)C(=O)N1c1cccc(C(F)(F)F)c1 (stereo not given) 67.4%, COc1cc(Br)c(C2C(C#N)=C(N)Oc3n[nH]c(-c4cccnc4)c32)cc1OC (stereo not given) 18.9%, NC(=O)c1cccc(C(N)=O)n1 -0.629%, COc1cc(OC)cc(C(=O)NC(C)CCc2ccccc2)c1 (stereo not given) 38.8%, COCCCN1C(=O)C(=O)/C(=C(/O)c2ccc(S(=O)(=O)N3CCOCC3)cc2)C1c1cccc(Cl)c1 (stereo not given) -14%, Cc1[nH]c(=S)c(C#N)c(C)c1CC(=O)c1ccc(Br)cc1 106%, CC(C)CCCN1C(Nc2ccccc2)=NC[C@@H]1Cc1ccccc1 -38.9%, Cc1nc(N2CCOCC2)nc2c1CCC2 0.306%, Cc1ccc(-c2n[nH]c(=S)n2-c2ccccc2)cc1 4.47%, CN(c1ccc(OCC(=O)N2CCOCC2)cc1)S(=O)(=O)c1ccc(Cl)cc1 5.69%, Cc1cc(C)c(C#N)c(Nc2ccccc2C)n1 19.5%, CCCn1c(N)c(C(=O)CN(C)CC(=O)Nc2ccc(C)cc2)c(=O)[nH]c1=O, CCOC(=O)c1c(NC(=O)c2cc3n(n2)C(C(F)(F)F)CC(c2cccs2)N3)sc(C)c1C (stereo not given) 10.8%, CC1CCCCC12NC(=O)N(CC(=O)OCc1ccc(Br)cc1)C2=O (stereo not given) -11.6%, Cn1nc(-c2ccc(C(=O)NCC3CCCO3)cc2)c2ccccc2c1=O (stereo not given) -53%, Cc1ccc(NC(=O)c2nc[nH]c2C(=O)N2CCN(c3ccccc3)CC2)cc1 16.8%, CC(C)CCC(C)NC(=O)C1CCN(S(=O)(=O)/C=C/c2ccccc2)CC1 (stereo not given) -18.4%, COc1ccc(C(=O)c2c[nH]c3ccccc23)cc1 8.71%, O=C(NCCc1c[nH]c2ccccc12)C(=O)NCC1OCCCN1S(=O)(=O)c1ccc(F)cc1 (stereo not given) 27.5%
